These are yes or no findings as the source states them, for the method shown. Some entries that bind do so weakly or less than the wild type.
Biological target: human CC-chemokine receptor 2 (CCR2), endogenous on THP-1 cells, THP-1 membranes and human blood cells (human) (UniProt P41597)
Experiment: competition with 0.1 nM [125I]-MCP-1 on whole THP-1 cells

By UniProt entry, the sequences of proteins in these tests, tags left out.
UniProt P41597: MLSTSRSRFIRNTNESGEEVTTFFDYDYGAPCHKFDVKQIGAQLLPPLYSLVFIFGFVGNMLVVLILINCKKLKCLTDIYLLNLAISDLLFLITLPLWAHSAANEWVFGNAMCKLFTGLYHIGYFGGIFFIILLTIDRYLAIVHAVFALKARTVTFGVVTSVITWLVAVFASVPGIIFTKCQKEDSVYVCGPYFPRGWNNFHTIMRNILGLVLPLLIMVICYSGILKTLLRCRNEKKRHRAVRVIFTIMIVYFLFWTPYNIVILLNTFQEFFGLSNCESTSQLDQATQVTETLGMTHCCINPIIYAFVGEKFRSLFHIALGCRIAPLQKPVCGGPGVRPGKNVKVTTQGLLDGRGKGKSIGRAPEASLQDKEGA

B1: humanized version of mAb 1D9 (heavy chain 1D9RHAVH, light chain 1D9RKAVK) (antibody, V domains shown)
VH: EVQLVESGGGLVKPGGSLRLSCAASGFTFSAYAMNWVRQAPGKGLEWVGRIRTKNNNYATYYADSVKDRFTISRDDSKNTLYLQMNSLKTEDTAVYYCTTFYGNGVWGQGTLVTVSS
VL: DVVMTQSPLSLPVTLGQPASISCKSSQSLLDSDGKTFLNWFQQRPGQSPRRLIYLVSKLDSGVPDRFSGSGSGTDFTLKISRVEAEDVGVYYCWQGTHFPYTFGQGTRLEIK
With B1 the binding was “binds”.
